Source: PMC7862700
The list shows a part of the results, in another mix than the full data. At the low end of the ranking, values are background and their order means little.

By UniProt entry, the sequences of proteins in these tests, tags left out. Where a name states a change or a piece, a line headed by the entry shows the natural chain unless it says otherwise.
UniProt Q01892: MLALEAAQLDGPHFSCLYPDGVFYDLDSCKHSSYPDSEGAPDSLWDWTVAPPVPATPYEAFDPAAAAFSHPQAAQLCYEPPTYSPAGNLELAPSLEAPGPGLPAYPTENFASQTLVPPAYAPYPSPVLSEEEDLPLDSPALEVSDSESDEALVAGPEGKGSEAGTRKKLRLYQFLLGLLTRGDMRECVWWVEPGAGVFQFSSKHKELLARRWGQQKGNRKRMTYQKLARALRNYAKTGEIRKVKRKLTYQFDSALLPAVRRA
UniProt P41161: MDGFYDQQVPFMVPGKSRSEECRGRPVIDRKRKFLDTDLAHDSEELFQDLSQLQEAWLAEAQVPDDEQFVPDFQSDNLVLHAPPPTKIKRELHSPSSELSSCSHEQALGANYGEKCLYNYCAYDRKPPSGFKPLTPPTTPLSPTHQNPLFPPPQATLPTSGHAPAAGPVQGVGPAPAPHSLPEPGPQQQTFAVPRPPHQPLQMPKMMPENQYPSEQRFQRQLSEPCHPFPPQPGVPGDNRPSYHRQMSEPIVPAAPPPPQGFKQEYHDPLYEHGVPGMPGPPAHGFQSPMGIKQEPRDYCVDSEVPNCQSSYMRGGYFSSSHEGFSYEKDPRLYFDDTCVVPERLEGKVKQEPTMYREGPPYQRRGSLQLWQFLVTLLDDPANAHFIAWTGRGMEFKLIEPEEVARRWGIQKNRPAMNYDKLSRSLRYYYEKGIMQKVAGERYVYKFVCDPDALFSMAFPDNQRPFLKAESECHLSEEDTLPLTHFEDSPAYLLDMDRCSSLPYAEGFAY
UniProt Q99607: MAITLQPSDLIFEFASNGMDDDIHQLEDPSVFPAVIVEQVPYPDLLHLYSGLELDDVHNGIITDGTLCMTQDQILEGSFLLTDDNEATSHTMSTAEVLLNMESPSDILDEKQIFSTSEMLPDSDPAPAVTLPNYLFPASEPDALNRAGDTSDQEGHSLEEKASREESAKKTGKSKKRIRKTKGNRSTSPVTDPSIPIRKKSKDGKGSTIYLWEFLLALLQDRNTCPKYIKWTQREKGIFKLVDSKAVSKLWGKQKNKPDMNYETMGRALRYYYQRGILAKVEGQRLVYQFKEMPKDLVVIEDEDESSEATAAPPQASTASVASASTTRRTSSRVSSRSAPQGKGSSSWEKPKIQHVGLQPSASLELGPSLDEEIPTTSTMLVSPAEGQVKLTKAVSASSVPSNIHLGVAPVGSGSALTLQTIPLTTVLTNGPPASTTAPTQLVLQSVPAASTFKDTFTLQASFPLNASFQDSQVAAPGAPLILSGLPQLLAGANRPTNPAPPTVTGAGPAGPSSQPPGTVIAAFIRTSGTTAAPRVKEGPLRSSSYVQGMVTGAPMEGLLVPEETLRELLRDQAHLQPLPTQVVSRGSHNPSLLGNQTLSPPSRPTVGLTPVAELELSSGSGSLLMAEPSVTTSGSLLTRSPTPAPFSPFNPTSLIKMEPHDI

How the values were obtained:
Assay in all cases: DAPPL (digital affinity profiling via proximity ligation, sequencing)
Conditions in all cases: 10 mM Tris-HCl pH 7.5, 50 mM NaCl, 1 mM DTT, 4% glycerol, room temperature, 30 min; GST-TFs on glutathione beads, 16-mer random dsDNA library, 0.1% …; high values mean tight binding; double strand, one strand shown; scale: fold enrichment (6-mer frequency, TF over GST control)
[1] = biological target: T1, FLI1 (UniProt Q01543)
T1 sequence: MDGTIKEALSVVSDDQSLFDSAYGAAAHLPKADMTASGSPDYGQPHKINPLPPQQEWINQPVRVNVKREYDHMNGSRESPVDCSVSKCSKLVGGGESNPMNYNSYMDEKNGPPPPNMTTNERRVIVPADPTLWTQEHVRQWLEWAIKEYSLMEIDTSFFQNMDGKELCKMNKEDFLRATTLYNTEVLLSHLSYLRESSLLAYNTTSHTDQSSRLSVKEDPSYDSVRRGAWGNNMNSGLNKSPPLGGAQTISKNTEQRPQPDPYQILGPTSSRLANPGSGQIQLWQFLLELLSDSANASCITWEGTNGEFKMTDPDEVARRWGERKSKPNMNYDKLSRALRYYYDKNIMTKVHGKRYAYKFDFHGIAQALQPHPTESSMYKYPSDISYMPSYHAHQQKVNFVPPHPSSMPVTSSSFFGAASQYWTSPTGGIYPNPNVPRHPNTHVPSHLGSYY

[2] = biological target: T2, EHF (UniProt Q9NZC4)
T2 sequence: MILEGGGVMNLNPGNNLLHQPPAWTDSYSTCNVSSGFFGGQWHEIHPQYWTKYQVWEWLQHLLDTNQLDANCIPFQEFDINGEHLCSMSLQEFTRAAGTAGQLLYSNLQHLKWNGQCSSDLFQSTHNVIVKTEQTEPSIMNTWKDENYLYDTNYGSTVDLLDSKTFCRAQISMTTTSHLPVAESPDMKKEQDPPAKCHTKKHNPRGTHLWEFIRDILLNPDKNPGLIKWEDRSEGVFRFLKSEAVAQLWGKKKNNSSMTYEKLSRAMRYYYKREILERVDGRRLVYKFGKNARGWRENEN

[3] = biological target: SPIB (UniProt Q01892)
[4] = biological target: ETV5 (UniProt P41161)
[5] = biological target: ELF4 (UniProt Q99607)
[6] = biological target: T3, ETV2 (UniProt O00321)
T3 sequence: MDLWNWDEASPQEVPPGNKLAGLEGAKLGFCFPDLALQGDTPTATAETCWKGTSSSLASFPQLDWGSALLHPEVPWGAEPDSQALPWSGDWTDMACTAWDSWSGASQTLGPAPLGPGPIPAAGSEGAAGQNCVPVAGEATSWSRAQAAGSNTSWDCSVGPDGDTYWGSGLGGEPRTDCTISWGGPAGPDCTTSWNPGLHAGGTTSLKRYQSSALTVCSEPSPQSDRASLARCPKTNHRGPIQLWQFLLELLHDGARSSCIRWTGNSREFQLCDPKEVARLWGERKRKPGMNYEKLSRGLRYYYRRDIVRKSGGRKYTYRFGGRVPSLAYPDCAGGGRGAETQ

[7] = biological target: T4, ETV3L (UniProt Q6ZN32)
T4 sequence: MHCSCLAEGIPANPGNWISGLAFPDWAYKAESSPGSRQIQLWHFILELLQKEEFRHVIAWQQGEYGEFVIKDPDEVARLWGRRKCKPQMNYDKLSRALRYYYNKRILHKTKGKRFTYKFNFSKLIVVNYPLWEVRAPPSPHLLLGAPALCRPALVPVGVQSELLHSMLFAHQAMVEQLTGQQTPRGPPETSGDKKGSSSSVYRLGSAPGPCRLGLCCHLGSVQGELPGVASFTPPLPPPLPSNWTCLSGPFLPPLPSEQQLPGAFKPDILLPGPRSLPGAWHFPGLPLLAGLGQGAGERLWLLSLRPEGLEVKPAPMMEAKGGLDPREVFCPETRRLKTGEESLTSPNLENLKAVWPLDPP

Row | Sequence | binding signal [1] | binding signal [2] | binding signal [3] | binding signal [4] | binding signal [5] | binding signal [6] | binding signal [7]
1 | GAAGAG | 0.886 | 0.921 | 0.913 | 0.892 | 0.896 | 0.871 | 0.868
2 | GCCGCG | 0.832 | 0.828 | 0.837 | 0.806 | 0.88 | 0.892 | 0.765
3 | GAGATT | 0.64 | 0.696 | 0.669 | 0.634 | 0.64 | 0.746 | 0.712
4 | GAACGT | 0.38 | 0.43 | 0.392 | 0.422 | 0.42 | 0.38 | 0.402
5 | TAGGTG | 0.928 | 0.862 | 0.835 | 0.933 | 0.9 | 0.773 | 0.832
6 | GCTGTC | 0.9 | 1 | 0.875 | 0.929 | 0.959 | 0.856 | 0.865
7 | AGACTA | 0.78 | 0.763 | 0.771 | 0.764 | 0.769 | 0.865 | 0.768
8 | TAGGAC | 0.868 | 0.891 | 0.84 | 0.917 | 0.891 | 0.881 | 0.911
9 | ACGGGC | 0.801 | 0.767 | 0.811 | 0.84 | 0.859 | 0.839 | 0.867
10 | GGTGAG | 0.367 | 0.344 | 0.339 | 0.373 | 0.356 | 0.311 | 0.353
11 | AGAGGA | 0.601 | 0.688 | 0.635 | 0.655 | 0.62 | 0.655 | 0.633
12 | CAGCGA | 0.881 | 0.86 | 0.969 | 0.936 | 0.838 | 0.984 | 0.897
13 | TCCGTG | 0.522 | 0.543 | 0.536 | 0.553 | 0.475 | 0.516 | 0.455
14 | GAGGGC | 0.639 | 0.596 | 0.618 | 0.573 | 0.581 | 0.678 | 0.557
15 | CCGGGC | 0.889 | 0.776 | 0.953 | 0.816 | 0.791 | 0.83 | 0.727
16 | GGTGCG | 0.623 | 0.643 | 0.596 | 0.585 | 0.598 | 0.643 | 0.583
17 | GGCGGC | 0.534 | 0.532 | 0.629 | 0.572 | 0.584 | 0.72 | 0.57
18 | GTGAAA | 0.698 | 0.783 | 0.649 | 0.748 | 0.756 | 0.768 | 0.739
19 | GAGATA | 0.656 | 0.651 | 0.617 | 0.655 | 0.665 | 0.638 | 0.669
20 | CGGGGG | 0.465 | 0.446 | 0.486 | 0.448 | 0.446 | 0.493 | 0.507

Record cards, as listed above. Values in the order: binding signal [1]	binding signal [2]	binding signal [3]	binding signal [4]	binding signal [5]	binding signal [6]	binding signal [7]
GCCGCG as listed: 0.832	0.828	0.837	0.806	0.88	0.892	0.765
GAGATT as listed: 0.64	0.696	0.669	0.634	0.64	0.746	0.712

(continued)

Row | Sequence | binding signal [1] | binding signal [2] | binding signal [3] | binding signal [4] | binding signal [5] | binding signal [6] | binding signal [7]
21 | GGCGAC | 0.803 | 0.801 | 0.82 | 0.772 | 0.86 | 0.828 | 0.899
22 | CGGCCG | 0.931 | 0.871 | 0.891 | 0.862 | 0.849 | 0.838 | 0.847
23 | ACGGTC | 0.735 | 0.785 | 0.864 | 0.756 | 0.811 | 0.804 | 0.83
24 | GGGACA | 0.732 | 0.63 | 0.601 | 0.636 | 0.63 | 0.621 | 0.639
25 | CGGGTA | 0.857 | 0.796 | 0.778 | 0.837 | 0.769 | 0.815 | 0.801
26 | AAGGTG | 0.95 | 0.907 | 0.899 | 0.898 | 0.905 | 0.837 | 0.888
27 | GGTCGG | 0.263 | 0.291 | 0.27 | 0.279 | 0.281 | 0.296 | 0.277
28 | GTGAGG | 0.263 | 0.24 | 0.241 | 0.247 | 0.241 | 0.258 | 0.253
29 | GTCGCT | 0.764 | 0.765 | 0.681 | 0.881 | 0.735 | 0.663 | 0.779
30 | GCCATA | 0.871 | 0.995 | 0.924 | 0.842 | 0.958 | 0.925 | 0.908
31 | GGTACC | 0.823 | 0.755 | 0.889 | 0.796 | 0.807 | 0.758 | 0.806
32 | GCGTAC | 0.871 | 0.862 | 0.958 | 0.863 | 0.925 | 0.884 | 0.984
33 | GAGGTG | 0.489 | 0.447 | 0.508 | 0.546 | 0.472 | 0.502 | 0.468
34 | TAGAGC | 0.76 | 0.861 | 0.701 | 0.707 | 0.793 | 0.79 | 0.704
35 | CAGCGT | 0.831 | 0.814 | 0.907 | 0.785 | 0.863 | 0.754 | 0.778
36 | AAGGGG | 0.93 | 0.863 | 0.927 | 0.973 | 0.94 | 0.853 | 0.969
37 | GACGAT | 0.916 | 0.932 | 0.986 | 0.872 | 0.92 | 0.826 | 0.882
38 | GGCGGA | 0.36 | 0.417 | 0.414 | 0.396 | 0.324 | 0.377 | 0.386
39 | GAGCAG | 0.639 | 0.602 | 0.655 | 0.602 | 0.639 | 0.636 | 0.6
40 | GTCCGT | 0.495 | 0.5 | 0.515 | 0.473 | 0.504 | 0.544 | 0.497

Row | Sequence | binding signal [1] | binding signal [2] | binding signal [3] | binding signal [4] | binding signal [5] | binding signal [6] | binding signal [7]
41 | GTTAGA | 0.786 | 0.777 | 0.736 | 0.743 | 0.77 | 0.83 | 0.799
42 | GTCGCC | 0.841 | 0.858 | 0.824 | 0.859 | 0.851 | 0.873 | 0.868
43 | TCCAGG | 0.844 | 0.836 | 0.921 | 0.859 | 0.857 | 0.772 | 0.864
44 | AGGGGC | 0.776 | 0.773 | 0.773 | 0.84 | 0.863 | 0.762 | 0.822
45 | GTCGGA | 0.166 | 0.184 | 0.17 | 0.165 | 0.154 | 0.154 | 0.173
46 | CGGGTG | 0.646 | 0.676 | 0.606 | 0.737 | 0.705 | 0.606 | 0.633
47 | GGTTGA | 0.716 | 0.8 | 0.748 | 0.757 | 0.768 | 0.846 | 0.8
48 | ACCAGT | 0.443 | 0.467 | 0.453 | 0.46 | 0.493 | 0.399 | 0.485
49 | GTAGTG | 0.84 | 0.806 | 0.683 | 0.764 | 0.804 | 0.73 | 0.8
50 | GGTGAA | 0.773 | 0.77 | 0.684 | 0.787 | 0.702 | 0.729 | 0.78
51 | CAGTCC | 0.655 | 0.612 | 0.647 | 0.626 | 0.666 | 0.618 | 0.657
52 | ATCAGG | 0.99 | 0.93 | 0.975 | 0.954 | 0.929 | 0.856 | 0.937
53 | GCATGA | 0.856 | 0.792 | 0.883 | 0.831 | 0.884 | 0.811 | 0.827
54 | ACAGGC | 0.705 | 0.742 | 0.66 | 0.676 | 0.669 | 0.622 | 0.751
55 | CGTAGA | 0.77 | 0.667 | 0.682 | 0.682 | 0.692 | 0.759 | 0.693
56 | AGAGTT | 0.772 | 0.764 | 0.777 | 0.806 | 0.776 | 0.791 | 0.847
57 | TGAGTC | 0.196 | 0.201 | 0.181 | 0.196 | 0.2 | 0.207 | 0.204
58 | GAGCCG | 0.469 | 0.441 | 0.428 | 0.376 | 0.411 | 0.381 | 0.375
59 | CCACGG | 0.911 | 0.854 | 0.852 | 0.851 | 0.949 | 0.814 | 0.884
60 | ACCATG | 0.85 | 0.922 | 0.844 | 0.865 | 0.846 | 0.935 | 0.896
